Test results: publication PMC11260493
No constants are given. Whether binding was seen depends on the method and setting. Binding seen in cells or lysates may run through a third protein. Binding can be weak; no strength is given.

By UniProt entry, the sequences of proteins in these tests, tags left out. Where a name states a change or a piece, a line headed by the entry shows the natural chain unless it says otherwise.
UniProt O15550: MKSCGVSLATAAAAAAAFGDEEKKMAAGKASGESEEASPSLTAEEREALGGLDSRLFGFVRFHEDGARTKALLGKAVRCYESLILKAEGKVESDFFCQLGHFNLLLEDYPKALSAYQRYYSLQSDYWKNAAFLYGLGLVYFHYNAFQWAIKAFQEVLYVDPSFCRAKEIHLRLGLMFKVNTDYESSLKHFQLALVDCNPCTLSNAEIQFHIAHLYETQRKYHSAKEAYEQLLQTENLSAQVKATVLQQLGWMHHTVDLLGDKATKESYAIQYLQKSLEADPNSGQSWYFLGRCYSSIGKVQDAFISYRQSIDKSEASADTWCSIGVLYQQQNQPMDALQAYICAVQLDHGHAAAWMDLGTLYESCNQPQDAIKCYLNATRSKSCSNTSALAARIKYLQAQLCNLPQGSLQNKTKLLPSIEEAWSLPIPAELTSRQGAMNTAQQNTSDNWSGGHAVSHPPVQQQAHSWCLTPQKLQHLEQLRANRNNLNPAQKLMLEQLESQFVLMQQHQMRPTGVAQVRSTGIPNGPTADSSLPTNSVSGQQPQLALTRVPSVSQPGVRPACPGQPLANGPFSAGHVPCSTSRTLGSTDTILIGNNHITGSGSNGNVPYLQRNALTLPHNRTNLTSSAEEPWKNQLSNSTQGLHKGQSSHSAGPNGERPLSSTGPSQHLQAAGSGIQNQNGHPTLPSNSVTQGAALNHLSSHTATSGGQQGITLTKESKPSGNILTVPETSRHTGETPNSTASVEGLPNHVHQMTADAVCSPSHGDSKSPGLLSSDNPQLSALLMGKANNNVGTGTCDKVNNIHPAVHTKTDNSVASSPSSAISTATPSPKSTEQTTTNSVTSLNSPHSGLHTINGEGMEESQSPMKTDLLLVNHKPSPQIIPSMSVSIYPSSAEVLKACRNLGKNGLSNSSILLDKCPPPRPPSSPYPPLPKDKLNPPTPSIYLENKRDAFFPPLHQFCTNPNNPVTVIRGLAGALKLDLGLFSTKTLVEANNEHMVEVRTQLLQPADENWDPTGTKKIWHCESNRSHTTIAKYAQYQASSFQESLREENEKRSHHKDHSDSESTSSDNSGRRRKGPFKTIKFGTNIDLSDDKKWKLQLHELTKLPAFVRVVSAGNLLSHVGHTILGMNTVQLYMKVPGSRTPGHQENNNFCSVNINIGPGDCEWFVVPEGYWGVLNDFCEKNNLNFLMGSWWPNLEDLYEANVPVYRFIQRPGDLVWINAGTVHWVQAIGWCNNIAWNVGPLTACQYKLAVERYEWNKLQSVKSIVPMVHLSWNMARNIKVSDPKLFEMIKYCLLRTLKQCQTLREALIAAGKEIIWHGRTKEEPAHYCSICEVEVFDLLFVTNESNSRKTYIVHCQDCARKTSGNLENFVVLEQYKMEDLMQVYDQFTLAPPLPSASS
UniProt Q7KZF4: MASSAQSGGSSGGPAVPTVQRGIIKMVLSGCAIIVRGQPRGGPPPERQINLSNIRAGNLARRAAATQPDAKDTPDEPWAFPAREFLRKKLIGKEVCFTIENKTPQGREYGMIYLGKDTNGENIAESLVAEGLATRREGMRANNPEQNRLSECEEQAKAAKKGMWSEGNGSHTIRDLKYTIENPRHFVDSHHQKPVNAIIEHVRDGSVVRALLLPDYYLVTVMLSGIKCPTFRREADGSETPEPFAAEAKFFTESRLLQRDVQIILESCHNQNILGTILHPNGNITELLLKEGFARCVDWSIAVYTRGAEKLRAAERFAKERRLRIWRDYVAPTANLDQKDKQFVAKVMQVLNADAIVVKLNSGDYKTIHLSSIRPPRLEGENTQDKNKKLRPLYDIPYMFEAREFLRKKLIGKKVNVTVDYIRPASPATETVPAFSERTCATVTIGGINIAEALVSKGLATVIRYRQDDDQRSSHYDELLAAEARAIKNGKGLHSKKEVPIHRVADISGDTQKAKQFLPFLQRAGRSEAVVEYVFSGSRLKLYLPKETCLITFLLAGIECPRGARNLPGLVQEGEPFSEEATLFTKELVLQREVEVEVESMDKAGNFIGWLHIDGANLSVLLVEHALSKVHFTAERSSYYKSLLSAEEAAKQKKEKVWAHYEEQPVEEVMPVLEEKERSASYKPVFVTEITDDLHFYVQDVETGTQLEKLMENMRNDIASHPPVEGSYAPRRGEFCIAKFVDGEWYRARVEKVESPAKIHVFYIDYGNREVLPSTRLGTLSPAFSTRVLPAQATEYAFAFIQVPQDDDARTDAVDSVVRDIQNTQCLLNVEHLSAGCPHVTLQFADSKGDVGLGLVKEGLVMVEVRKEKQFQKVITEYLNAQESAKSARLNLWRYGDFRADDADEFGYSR

Target: KDM6A N1156T (UniProt O15550)
Assay: co-IP; Kyse150 cells co-transfected with the plasmid of SND1 and KDM6A mutants identified in ESCC patients; western blot with specific antibodies

**Q.** With “SND1 (plasmid co-transfected in Kyse150 cells) (from UniProt Q7KZF4 1-910)” as the substance, how does the binding read?
**A.** The binding was “binds”.
